No constants are given. Whether binding was seen depends on the method and setting. Some entries that bind do so weakly or less than the wild type.

The chains behind the UniProt entries cited, without tags or fusion partners. Residues count along the entry.
UniProt P18177: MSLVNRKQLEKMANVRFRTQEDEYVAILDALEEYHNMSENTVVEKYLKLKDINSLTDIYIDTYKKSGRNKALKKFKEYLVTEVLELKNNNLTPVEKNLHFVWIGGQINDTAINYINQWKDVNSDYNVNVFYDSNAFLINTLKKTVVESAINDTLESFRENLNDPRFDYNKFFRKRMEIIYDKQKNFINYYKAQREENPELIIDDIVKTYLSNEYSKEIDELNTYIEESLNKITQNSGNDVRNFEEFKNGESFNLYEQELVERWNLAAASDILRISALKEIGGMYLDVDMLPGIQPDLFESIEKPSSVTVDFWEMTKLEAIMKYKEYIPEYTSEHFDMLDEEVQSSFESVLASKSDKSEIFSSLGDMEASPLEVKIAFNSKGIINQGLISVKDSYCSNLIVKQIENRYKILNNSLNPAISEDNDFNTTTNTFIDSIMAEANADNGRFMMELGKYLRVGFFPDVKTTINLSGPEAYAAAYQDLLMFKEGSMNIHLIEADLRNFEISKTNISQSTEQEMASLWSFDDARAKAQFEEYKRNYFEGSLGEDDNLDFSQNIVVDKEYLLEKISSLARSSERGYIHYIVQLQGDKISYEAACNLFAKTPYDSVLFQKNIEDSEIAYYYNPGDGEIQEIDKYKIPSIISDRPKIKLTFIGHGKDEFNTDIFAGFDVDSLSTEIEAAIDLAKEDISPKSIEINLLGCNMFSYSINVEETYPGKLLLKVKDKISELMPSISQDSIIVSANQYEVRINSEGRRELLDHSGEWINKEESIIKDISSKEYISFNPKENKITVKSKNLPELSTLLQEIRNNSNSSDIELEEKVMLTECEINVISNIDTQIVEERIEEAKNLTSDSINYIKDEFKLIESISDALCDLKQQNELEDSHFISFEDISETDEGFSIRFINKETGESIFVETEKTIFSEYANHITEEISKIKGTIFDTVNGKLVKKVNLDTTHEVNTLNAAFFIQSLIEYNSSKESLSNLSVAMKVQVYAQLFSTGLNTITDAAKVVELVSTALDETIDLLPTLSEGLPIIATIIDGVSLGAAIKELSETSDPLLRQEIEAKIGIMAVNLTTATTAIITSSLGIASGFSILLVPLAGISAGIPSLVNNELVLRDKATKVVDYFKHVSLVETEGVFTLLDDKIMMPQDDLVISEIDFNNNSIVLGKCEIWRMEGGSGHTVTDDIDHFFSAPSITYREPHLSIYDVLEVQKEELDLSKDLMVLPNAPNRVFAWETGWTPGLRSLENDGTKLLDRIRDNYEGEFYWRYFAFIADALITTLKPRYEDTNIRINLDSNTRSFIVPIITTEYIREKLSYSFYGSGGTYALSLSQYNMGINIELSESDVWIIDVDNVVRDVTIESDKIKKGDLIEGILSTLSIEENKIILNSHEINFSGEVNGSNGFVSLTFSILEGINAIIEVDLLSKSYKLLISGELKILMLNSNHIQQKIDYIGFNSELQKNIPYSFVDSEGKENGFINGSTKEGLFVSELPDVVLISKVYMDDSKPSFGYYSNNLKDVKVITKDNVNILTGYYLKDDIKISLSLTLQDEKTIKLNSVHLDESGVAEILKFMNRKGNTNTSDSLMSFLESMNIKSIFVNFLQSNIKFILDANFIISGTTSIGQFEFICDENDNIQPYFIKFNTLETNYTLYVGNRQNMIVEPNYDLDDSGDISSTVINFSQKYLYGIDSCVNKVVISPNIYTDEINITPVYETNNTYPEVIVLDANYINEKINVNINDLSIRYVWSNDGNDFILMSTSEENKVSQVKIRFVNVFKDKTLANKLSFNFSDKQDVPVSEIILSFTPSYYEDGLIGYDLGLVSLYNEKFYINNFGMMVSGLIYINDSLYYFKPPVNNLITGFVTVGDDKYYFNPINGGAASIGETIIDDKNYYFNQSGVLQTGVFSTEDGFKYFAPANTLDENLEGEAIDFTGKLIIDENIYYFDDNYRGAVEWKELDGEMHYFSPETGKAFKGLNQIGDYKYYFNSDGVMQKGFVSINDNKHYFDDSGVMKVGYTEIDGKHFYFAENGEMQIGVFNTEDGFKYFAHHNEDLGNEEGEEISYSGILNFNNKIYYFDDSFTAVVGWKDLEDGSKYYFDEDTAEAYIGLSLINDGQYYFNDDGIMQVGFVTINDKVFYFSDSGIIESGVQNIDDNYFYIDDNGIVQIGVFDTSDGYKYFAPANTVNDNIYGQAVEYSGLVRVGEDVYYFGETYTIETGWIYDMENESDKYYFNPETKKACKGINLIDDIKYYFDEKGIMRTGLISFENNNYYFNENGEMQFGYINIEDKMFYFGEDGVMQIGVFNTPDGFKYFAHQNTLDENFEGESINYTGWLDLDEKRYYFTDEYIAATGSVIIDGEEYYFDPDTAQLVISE
UniProt P01009, residues 25-418: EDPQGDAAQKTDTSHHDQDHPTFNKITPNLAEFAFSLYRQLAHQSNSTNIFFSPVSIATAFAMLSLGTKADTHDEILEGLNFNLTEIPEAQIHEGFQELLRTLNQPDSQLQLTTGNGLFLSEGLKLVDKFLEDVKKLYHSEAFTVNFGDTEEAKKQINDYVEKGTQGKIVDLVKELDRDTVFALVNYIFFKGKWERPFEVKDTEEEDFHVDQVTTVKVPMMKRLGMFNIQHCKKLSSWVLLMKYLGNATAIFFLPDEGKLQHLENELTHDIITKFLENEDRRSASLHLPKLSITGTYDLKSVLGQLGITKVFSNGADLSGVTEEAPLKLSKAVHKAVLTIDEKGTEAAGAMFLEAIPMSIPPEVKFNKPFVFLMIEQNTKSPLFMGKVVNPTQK

This assay has as its target Clostridioides difficile toxin B (TcdB), native, from strain VPI 10463 (Clostridioides difficile VPI 10463) (UniProt P18177). In words: co-sedimentation; both purified.

As to “human alpha-1 antitrypsin (α1AT), Prolastin (from UniProt P01009 25-418)”, the binding result is listed as “no binding”. The entry for AFTCHCRRSCYSTEYSYGTCTVMGINHRFCCL (peptide, UniProt Q01524 69-100) [α-defensin-6] is “binds”.

The values above are taken from article PMC11390955.
